Test results published in patent US11572557B2, “Photoreversible acylation reagents” (The Board of Trustees of the Leland Stanford Junior …, priority 2018, dated 2023).

Tested on: 12 nucleotide (nt) RNA strand
Test: Cloaking of 12 nt RNA with PCA 1 and uncloaking with 365 nm light, analysed by denaturing PAGE and MALDI-TOF
Protocol: To test if prototypical PCA reagent 1 is effective in reacting with RNA, it was incubated for 4 h at 100 mM at room temperature with a 12 nucleotide (nt) RNA strand (10 μM) in water. One μL RNA stock solution in water (1 mM or 100 μM) was dissolved in 8 μL RNAse free biological grade water and heated to 95° C. for 2 min and then cooled to room temperature. To this was added 1 μL 1M PCA stock in dry DMSO and the mixture incubated for 4 h at room temperature unless stated otherwise. The solution becomes slightly cloudy initially and then clears after ˜30 min. After reaction, the RNA was precipitated by adding 1 μL of 3 M NaOAc buffer pH=5.2, 1 μL glycogen (10 mg/mL) and 36 μL EtOH and storing at −80° C. for 16 h. The resulting suspension was centrifuged at 14,800 rpm for 60 min and the supernatant was removed. The solids were washed with 10 μL 70% EtOH and centrifuged at 14,800 rpm for 5 min. The supernatant was removed and the RNA was dried in air for 10 min and redissolved in RNAse free biological grade water at the desired concentration. RNA concentration was determined with a Nanodrop One microvolume UV-VIS spectrophotometer. RNA samples were stored at −20° C.
Uncloaking of RNA by photoremoval of the PCA labels was also investigated. […]
In addition, native, cloaked and uncloaked Cy-5 labeled 12-mer RNA (Seq. ID No. 1) were evaluated using 30% denaturing PAGE and MALDI-TOF. […]

COc1cc(COC(=O)n2ccnc2Cl)c([N+](=O)[O-])cc1OCCN(C)C [PCA 1, 4-(2-(dimethylamino)ethoxy)-5-methoxy-2-nitrobenzyl 2-chloro-1H-imidazole-1-carboxylate]
new mobility-shifted bands of cloaked RNA (denaturing PAGE) (100 mM PCA 1, 4 h, room temperature, 10 μM 12 nt RNA in water): up to five new mobility-shifted bands | shifted bands after uncloaking (PAGE) (cloaked 12-mer RNA after 365 nm light): majority of shifted bands disappeared
